According to patent US8063225B2, “Tricyclic compound derivatives useful in the treatment of neoplastic diseases, inflammatory disorders and immunomodulatory disorders” (Chembridge Corporation, priority 2006, dated 2011):
pIC50: −log10 of the molar value.

What was measured:
Assay type in all cases: cell-based
[1] = system: Karpas-299; experiment: Cell proliferation inhibition, Cell Titer-Glo, Karpas-299; details: Homo sapiens; cell proliferation assay, Karpas-299 cells
Text: (§1) IGF1R and other tyrosine kinase inhibitors can inhibit the proliferation of certain cancer cell lines indicating their possible therapeutic utility for treating the corresponding cancer types. Cancer cell lines of interest and control normal lines, including CHO, HEK293, BA/F3, COLO205, PC3, DU145, MCF7, Panc1, ACHN, Hep G2, H460, K562, TT, U87-MG, CAOV-3, SK-MEL5, Karpas 299 and human multiple myeloma cell lines H929, MM1s, MM1r, UTMC2, CPM2, KMS11, My5, KMS12PE, My7, JJN3, KMS18, U266, SKMM2, RPMI-8226 are plated in white, clear-bottomed 384-well cell culture plates at 2500-5000 cells per well and supplied with dilutions of tested compounds After a desired period of time (typically 3 days), the number of viable cells is quantitated by using Cell Titer-Glo Luminescent Cell Viability Assay (Promega), a cell proliferation assay system based on detection of total amount of ATP present as a measure of cell metabolic activity. The plated cells are mixed with the Cell Titer-Glo developing reagent and counted in a luminescence multiwell plate reader according to the standard manufacturer's protocol to generate IC50 curves for cell proliferation inhibition. […] Alternatively, viable cells are quantitated by using the conventional colorimetric MTT assay. […] The formazan is then solubilized, and the concentration determined by optical density at 570 nm. […]

[2] = system: Ba/F3; experiment: Cell proliferation inhibition, Cell Titer-Glo, Ba/F3; details: Mus musculus, BaF3; cell proliferation assay, Ba/F3 cells
Text: as §1

[3] = system: H929 (multiple myeloma); experiment: Cell proliferation inhibition, Cell Titer-Glo, H929; details: Homo sapiens, NCI-H929; cell proliferation assay, H929 cells
Procedure: IGF1R and other tyrosine kinase inhibitors can inhibit the proliferation of certain cancer cell lines indicating their possible therapeutic utility for treating the corresponding cancer types. Cancer cell lines of interest and control normal lines, including CHO, HEK293, BA/F3, MM1, H929, COLO205, PC3, DU145, MCF7, Panc1, ACHN, Hep G2, H460, K562, TT, U87-G, CAOV-3, SK-MEL5, Karpas 299, are plated in white, clear-bottomed 384-well cell culture plates at 2500-5000 cells per well and supplied with dilutions of tested compounds After a desired period of time (typically 3 days), the number of viable cells is quantitated by using Cell Titer-Glo Luminescent Cell Viability Assay (Promega), a cell proliferation assay system based on detection of total amount of ATP present as a measure of cell metabolic activity. The plated cells are mixed with the Cell Titer-Glo developing reagent and counted in a luminescence multiwell plate reader according to the standard manufacturer's protocol to generate IC50 curves for cell proliferation inhibition.
IGF1R and other tyrosine kinase inhibitors can inhibit the proliferation of certain cancer cell lines indicating their possible therapeutic utility for treating the corresponding cancer types. […] Alternatively, viable cells are quantitated by using the conventional colorimetric MTT assay. […]

pIC50 [1]: < 4.82
pIC50 [2]: < 4.82
pIC50 [3]: 5.30 to 6.30
Structure (SMILES): Cc1ccc(OC[C@H](O)CNc2cc[nH]c(=O)c2-c2nc3cc4c(cc3[nH]2)C(=O)N(N2CCN(CCO)CC2)C4=O)c(C)c1 [compound 145]
